This note sets out measurements from patent US20210054094A1.

Chains of the proteins cited; added tags and fusions are not shown. Lines headed by an entry give the natural chain unless they say otherwise; changes in a name come on top.
UniProt Q9NZD1: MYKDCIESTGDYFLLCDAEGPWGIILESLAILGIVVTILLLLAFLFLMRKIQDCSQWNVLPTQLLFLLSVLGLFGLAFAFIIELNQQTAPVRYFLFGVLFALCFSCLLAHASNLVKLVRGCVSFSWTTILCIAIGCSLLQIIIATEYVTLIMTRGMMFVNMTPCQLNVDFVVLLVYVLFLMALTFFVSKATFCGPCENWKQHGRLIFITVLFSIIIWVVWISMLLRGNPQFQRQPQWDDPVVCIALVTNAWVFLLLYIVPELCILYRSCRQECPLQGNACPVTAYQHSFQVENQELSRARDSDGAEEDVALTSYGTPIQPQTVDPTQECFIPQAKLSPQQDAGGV

The experiment concerns the target human GPRC5D (human) (UniProt Q9NZD1). The experiment can be described thus: cell ELISA, CHO expressing human GPRC5D.

These are yes or no findings as the source states them, for the method shown. Some results given as binding are weak or reduced against the parent protein; the word gives no strength.

B1: 07A04 IgG (antibody, V domains shown)
VH: QVTLKESGPGILQPSHTLSLTCSFSGFSLSTYGMGVNWIRQPSGKGLEWLASIWWNGNTYNNPSLKSRLTVSKDTSNNQAFLKVTSVDTADTATYYCVHTRGIIRGRGLFFDYWGQGVMVTVSS
VL: DVQMTQSPYNLAASPGESVSINCKASKSISKYLAWYQQKPGKANKLLIYDGSTLQSGIPSRFSGSGSGTDFTLTIRSLEPEDFGLYYCQQHNEYPLTFGSGTKLEIKR
Turning to B1, the binding result is given as “binds”.
